In patent EP0679394B1, “Menatetronome derivative as antiarteriosclerotic agent” (Eisai Co., Ltd., priority 1994, dated 1995):

System: arteriosclerotic rats
Assay: Effect of vitamin K2 on arteriosclerotic rats (vitamin D2-induced calcification)
Format: in vivo
Conditions: Group A: vitamin D2 2.5 × 10^5 IU/kg/day p.o. alone
Description: Then vitamin D2, vitamin D2 with vitamin K2 (in a low dose), and vitamin D2 with vitamin K2 (in a high dose) were given respectively to the groups A, B and C.
After feeding for five weeks, the urine of each group was sampled for a period of 20 hours and the urinary calcium, phosphorus and creatinine levels were measured.
After feeding for six weeks, the animals of each group were bled to death and the blood, aorta (from the aortic arch to the thoracic aorta) and kidneys were sampled.
The serum was separated from the blood and the serum calcium and phosphorus levels were measured.
The aorta and kidneys were defatted, dehydrated and incinerated and the calcium and phosphorus contents therein were determined.
The calcium concentrations were determined by atomic absorption spectrophotometry. The inorganic phosphorus concentrations were determined by Goldenberg's method. The creatinine concentrations were determined by the enzymatic method.
(The data of each group were compared with those of the control group according to the t-test method.)

[1] = urine sampled for 20 hours after five weeks

SMILES: C=C1CC[C@H](O)C/C1=C/C=C1\CCC[C@]2(C)[C@@H]([C@H](C)/C=C/[C@H](C)C(C)C)CC[C@@H]12 [vitamin D2]
- Serum Ca (6 weeks, n=8): 9.8 ± 1.4 mg/dL
- Serum P (6 weeks, n=8): 8.2 ± 1.4 mg/dL
- Urine Ca [1]: 1.9 ± 1.0 mg/dL
- Urine P [1]: 59.1 ± 20.2 mg/dL
- Urine creatinine [1]: 77.2 ± 22.8 mg/dL
- Urine urine volume [1]: 18.6 ± 12.3 mL
